{
  "sequences": {"note": "Protein sequences, listed by entry. Tags and fused reporters are not part of them.", "UniProt Q07157": "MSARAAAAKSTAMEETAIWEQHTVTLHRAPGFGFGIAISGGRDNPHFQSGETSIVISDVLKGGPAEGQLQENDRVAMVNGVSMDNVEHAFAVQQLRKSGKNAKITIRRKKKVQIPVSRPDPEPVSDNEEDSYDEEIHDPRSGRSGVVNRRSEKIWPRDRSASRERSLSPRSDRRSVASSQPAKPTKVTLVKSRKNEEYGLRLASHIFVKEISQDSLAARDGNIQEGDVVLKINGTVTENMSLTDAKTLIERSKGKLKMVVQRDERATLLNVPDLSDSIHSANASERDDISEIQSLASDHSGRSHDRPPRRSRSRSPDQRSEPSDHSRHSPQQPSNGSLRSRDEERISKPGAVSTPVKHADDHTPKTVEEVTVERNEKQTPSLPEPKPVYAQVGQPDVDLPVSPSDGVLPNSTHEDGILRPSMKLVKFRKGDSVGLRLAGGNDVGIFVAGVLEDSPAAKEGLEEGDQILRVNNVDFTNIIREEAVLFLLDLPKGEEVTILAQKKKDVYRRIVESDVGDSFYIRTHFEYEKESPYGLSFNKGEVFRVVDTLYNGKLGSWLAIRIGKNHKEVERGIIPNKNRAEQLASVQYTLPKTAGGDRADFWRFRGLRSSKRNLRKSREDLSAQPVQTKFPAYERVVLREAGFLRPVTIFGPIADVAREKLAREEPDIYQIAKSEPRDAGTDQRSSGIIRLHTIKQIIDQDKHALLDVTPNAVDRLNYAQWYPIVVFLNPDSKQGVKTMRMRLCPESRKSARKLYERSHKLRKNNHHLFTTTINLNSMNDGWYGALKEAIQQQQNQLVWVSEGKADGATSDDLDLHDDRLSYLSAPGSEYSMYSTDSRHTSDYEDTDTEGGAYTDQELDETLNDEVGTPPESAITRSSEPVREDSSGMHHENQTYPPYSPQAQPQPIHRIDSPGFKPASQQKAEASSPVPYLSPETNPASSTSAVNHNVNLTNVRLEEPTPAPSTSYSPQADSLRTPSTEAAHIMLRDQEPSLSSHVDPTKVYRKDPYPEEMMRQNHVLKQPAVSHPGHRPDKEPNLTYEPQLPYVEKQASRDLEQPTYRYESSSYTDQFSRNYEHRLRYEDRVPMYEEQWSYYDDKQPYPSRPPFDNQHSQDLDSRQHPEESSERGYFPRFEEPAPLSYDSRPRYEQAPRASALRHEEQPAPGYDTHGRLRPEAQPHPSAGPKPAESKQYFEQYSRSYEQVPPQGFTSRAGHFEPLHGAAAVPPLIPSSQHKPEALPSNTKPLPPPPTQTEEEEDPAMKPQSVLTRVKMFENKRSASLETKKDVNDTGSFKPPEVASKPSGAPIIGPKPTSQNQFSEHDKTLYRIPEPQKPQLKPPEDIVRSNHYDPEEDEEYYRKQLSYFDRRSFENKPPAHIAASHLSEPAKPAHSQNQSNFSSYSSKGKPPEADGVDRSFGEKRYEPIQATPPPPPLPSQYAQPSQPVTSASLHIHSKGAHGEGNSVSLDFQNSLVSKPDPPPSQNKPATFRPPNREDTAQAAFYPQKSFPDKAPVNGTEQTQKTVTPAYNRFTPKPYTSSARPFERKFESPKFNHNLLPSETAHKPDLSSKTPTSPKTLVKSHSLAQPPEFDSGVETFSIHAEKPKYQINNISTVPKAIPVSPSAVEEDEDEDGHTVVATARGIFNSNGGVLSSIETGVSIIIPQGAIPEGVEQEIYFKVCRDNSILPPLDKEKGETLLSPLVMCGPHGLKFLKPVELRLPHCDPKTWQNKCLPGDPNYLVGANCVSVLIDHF"},
  "source": "paper doi:10.1101/589580",
  "assay_in_all_cases": "client partitioning into phase-separated droplets",
  "key": {"[1]": {"molecular_target": "full-length ZO1 with C-terminal mEGFP (UniProt Q07157)"}, "[2]": {"molecular_target": "T1, full-length ZO2 with C-terminal mEGFP, Q9UDY2", "T1 chain": "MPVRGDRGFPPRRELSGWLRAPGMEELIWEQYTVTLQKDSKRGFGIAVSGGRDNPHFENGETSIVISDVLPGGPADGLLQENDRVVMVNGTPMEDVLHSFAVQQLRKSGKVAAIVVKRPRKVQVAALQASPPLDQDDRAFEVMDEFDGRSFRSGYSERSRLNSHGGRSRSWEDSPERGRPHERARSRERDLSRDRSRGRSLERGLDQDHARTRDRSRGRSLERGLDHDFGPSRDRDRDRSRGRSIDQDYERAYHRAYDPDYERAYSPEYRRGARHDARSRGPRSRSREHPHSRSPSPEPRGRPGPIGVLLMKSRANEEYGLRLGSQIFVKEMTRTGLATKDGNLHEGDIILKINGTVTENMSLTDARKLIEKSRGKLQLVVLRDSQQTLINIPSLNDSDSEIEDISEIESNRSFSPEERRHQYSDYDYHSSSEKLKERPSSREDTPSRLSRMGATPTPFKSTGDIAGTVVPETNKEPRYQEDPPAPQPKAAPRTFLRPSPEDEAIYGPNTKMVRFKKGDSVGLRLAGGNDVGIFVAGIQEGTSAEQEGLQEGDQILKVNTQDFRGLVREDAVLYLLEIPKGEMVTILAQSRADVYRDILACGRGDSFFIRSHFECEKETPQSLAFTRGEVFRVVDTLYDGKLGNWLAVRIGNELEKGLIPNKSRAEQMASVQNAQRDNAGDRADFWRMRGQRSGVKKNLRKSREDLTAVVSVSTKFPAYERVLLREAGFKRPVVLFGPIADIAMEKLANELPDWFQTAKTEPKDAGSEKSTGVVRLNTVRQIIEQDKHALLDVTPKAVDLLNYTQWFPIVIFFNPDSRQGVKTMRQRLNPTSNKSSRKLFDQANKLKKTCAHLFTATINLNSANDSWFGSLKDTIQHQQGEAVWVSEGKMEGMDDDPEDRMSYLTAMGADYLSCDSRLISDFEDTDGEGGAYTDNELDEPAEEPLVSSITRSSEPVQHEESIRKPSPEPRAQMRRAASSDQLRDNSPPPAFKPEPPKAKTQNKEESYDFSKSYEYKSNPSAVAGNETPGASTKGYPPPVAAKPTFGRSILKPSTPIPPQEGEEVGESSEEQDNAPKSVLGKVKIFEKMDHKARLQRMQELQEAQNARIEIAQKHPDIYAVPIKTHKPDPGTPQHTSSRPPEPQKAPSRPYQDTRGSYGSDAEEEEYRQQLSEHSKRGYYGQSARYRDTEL", "details": "remark: other sources report otherwise"}, "[3]": {"molecular_target": "T2, full-length ZO3 with C-terminal mEGFP, O95049", "T2 chain": "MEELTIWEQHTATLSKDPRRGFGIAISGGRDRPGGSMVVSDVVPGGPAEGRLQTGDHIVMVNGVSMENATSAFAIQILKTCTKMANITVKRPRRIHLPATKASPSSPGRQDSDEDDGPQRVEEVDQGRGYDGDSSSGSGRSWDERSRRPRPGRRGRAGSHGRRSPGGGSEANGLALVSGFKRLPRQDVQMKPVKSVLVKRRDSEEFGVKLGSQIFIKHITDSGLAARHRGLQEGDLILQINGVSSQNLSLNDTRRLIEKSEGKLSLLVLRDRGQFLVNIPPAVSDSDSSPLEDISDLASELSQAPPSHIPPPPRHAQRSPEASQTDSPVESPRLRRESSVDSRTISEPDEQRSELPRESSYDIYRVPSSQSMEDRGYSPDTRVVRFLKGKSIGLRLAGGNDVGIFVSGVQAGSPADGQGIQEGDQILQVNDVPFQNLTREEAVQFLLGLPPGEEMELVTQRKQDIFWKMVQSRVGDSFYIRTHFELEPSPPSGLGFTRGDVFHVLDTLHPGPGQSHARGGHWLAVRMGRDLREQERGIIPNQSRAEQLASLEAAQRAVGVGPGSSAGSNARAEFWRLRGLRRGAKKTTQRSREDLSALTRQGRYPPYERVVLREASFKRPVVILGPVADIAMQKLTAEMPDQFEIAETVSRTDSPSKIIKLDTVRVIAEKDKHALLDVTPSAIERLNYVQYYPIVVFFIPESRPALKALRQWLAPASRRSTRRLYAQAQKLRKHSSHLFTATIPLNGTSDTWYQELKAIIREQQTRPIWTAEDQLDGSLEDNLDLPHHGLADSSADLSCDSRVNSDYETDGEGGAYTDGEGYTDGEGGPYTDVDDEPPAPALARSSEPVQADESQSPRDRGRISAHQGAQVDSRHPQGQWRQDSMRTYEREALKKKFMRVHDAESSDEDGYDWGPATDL", "details": "remark: other sources report otherwise"}},
  "note": "Results are given in words; binding and its absence hold for the method and conditions named. Some results given as binding are weak or reduced against the parent protein; the word gives no strength. For part of these data: Sequences can lack the tags named with a protein.",
  "data": [
    {"binder": "mCherry-labelled ZO2 (client) (protein, UniProt Q9UDY2 1-1190) MPVRGDRGFPPRRELSGWLRAPGMEELIWEQYTVTLQKDSKRGFGIAVSGGRDNPHFENGETSIVISDVLPGGPADGLLQENDRVVMVNGTPMEDVLHSFAVQQLRKSGKVAAIVVKRPRKVQVAALQASPPLDQDDRAFEVMDEFDGRSFRSGYSERSRLNSHGGRSRSWEDSPERGRPHERARSRERDLSRDRSRGRSLERGLDQDHARTRDRSRGRSLERGLDHDFGPSRDRDRDRSRGRSIDQDYERAYHRAYDPDYERAYSPEYRRGARHDARSRGPRSRSREHPHSRSPSPEPRGRPGPIGVLLMKSRANEEYGLRLGSQIFVKEMTRTGLATKDGNLHEGDIILKINGTVTENMSLTDARKLIEKSRGKLQLVVLRDSQQTLINIPSLNDSDSEIEDISEIESNRSFSPEERRHQYSDYDYHSSSEKLKERPSSREDTPSRLSRMGATPTPFKSTGDIAGTVVPETNKEPRYQEDPPAPQPKAAPRTFLRPSPEDEAIYGPNTKMVRFKKGDSVGLRLAGGNDVGIFVAGIQEGTSAEQEGLQEGDQILKVNTQDFRGLVREDAVLYLLEIPKGEMVTILAQSRADVYRDILACGRGDSFFIRSHFECEKETPQSLAFTRGEVFRVVDTLYDGKLGNWLAVRIGNELEKGLIPNKSRAEQMASVQNAQRDNAGDRADFWRMRGQRSGVKKNLRKSREDLTAVVSVSTKFPAYERVLLREAGFKRPVVLFGPIADIAMEKLANELPDWFQTAKTEPKDAGSEKSTGVVRLNTVRQIIEQDKHALLDVTPKAVDLLNYTQWFPIVIFFNPDSRQGVKTMRQRLNPTSNKSSRKLFDQANKLKKTCAHLFTATINLNSANDSWFGSLKDTIQHQQGEAVWVSEGKMEGMDDDPEDRMSYLTAMGADYLSCDSRLISDFEDTDGEGGAYTDNELDEPAEEPLVSSITRSSEPVQHEESIRKPSPEPRAQMRRAASSDQLRDNSPPPAFKPEPPKAKTQNKEESYDFSKSYEYKSNPSAVAGNETPGASTKGYPPPVAAKPTFGRSILKPSTPIPPQEGEEVGESSEEQDNAPKSVLGKVKIFEKMDHKARLQRMQELQEAQNARIEIAQKHPDIYAVPIKTHKPDPGTPQHTSSRPPEPQKAPSRPYQDTRGSYGSDAEEEEYRQQLSEHSKRGYYGQSARYRDTEL", "values": [
      {"measurement": "binding", "setting": "[1]", "result": "binds"}
    ]},
    {"binder": "mCherry-labelled ZO3 (client), O95049 1-919 (protein) MEELTIWEQHTATLSKDPRRGFGIAISGGRDRPGGSMVVSDVVPGGPAEGRLQTGDHIVMVNGVSMENATSAFAIQILKTCTKMANITVKRPRRIHLPATKASPSSPGRQDSDEDDGPQRVEEVDQGRGYDGDSSSGSGRSWDERSRRPRPGRRGRAGSHGRRSPGGGSEANGLALVSGFKRLPRQDVQMKPVKSVLVKRRDSEEFGVKLGSQIFIKHITDSGLAARHRGLQEGDLILQINGVSSQNLSLNDTRRLIEKSEGKLSLLVLRDRGQFLVNIPPAVSDSDSSPLEDISDLASELSQAPPSHIPPPPRHAQRSPEASQTDSPVESPRLRRESSVDSRTISEPDEQRSELPRESSYDIYRVPSSQSMEDRGYSPDTRVVRFLKGKSIGLRLAGGNDVGIFVSGVQAGSPADGQGIQEGDQILQVNDVPFQNLTREEAVQFLLGLPPGEEMELVTQRKQDIFWKMVQSRVGDSFYIRTHFELEPSPPSGLGFTRGDVFHVLDTLHPGPGQSHARGGHWLAVRMGRDLREQERGIIPNQSRAEQLASLEAAQRAVGVGPGSSAGSNARAEFWRLRGLRRGAKKTTQRSREDLSALTRQGRYPPYERVVLREASFKRPVVILGPVADIAMQKLTAEMPDQFEIAETVSRTDSPSKIIKLDTVRVIAEKDKHALLDVTPSAIERLNYVQYYPIVVFFIPESRPALKALRQWLAPASRRSTRRLYAQAQKLRKHSSHLFTATIPLNGTSDTWYQELKAIIREQQTRPIWTAEDQLDGSLEDNLDLPHHGLADSSADLSCDSRVNSDYETDGEGGAYTDGEGYTDGEGGPYTDVDDEPPAPALARSSEPVQADESQSPRDRGRISAHQGAQVDSRHPQGQWRQDSMRTYEREALKKKFMRVHDAESSDEDGYDWGPATDL", "values": [
      {"measurement": "binding", "setting": "[2]", "result": "no binding"}
    ]},
    {"binder": "mCherry-labelled ZO2 (client), Q9UDY2 1-1190 (protein) MPVRGDRGFPPRRELSGWLRAPGMEELIWEQYTVTLQKDSKRGFGIAVSGGRDNPHFENGETSIVISDVLPGGPADGLLQENDRVVMVNGTPMEDVLHSFAVQQLRKSGKVAAIVVKRPRKVQVAALQASPPLDQDDRAFEVMDEFDGRSFRSGYSERSRLNSHGGRSRSWEDSPERGRPHERARSRERDLSRDRSRGRSLERGLDQDHARTRDRSRGRSLERGLDHDFGPSRDRDRDRSRGRSIDQDYERAYHRAYDPDYERAYSPEYRRGARHDARSRGPRSRSREHPHSRSPSPEPRGRPGPIGVLLMKSRANEEYGLRLGSQIFVKEMTRTGLATKDGNLHEGDIILKINGTVTENMSLTDARKLIEKSRGKLQLVVLRDSQQTLINIPSLNDSDSEIEDISEIESNRSFSPEERRHQYSDYDYHSSSEKLKERPSSREDTPSRLSRMGATPTPFKSTGDIAGTVVPETNKEPRYQEDPPAPQPKAAPRTFLRPSPEDEAIYGPNTKMVRFKKGDSVGLRLAGGNDVGIFVAGIQEGTSAEQEGLQEGDQILKVNTQDFRGLVREDAVLYLLEIPKGEMVTILAQSRADVYRDILACGRGDSFFIRSHFECEKETPQSLAFTRGEVFRVVDTLYDGKLGNWLAVRIGNELEKGLIPNKSRAEQMASVQNAQRDNAGDRADFWRMRGQRSGVKKNLRKSREDLTAVVSVSTKFPAYERVLLREAGFKRPVVLFGPIADIAMEKLANELPDWFQTAKTEPKDAGSEKSTGVVRLNTVRQIIEQDKHALLDVTPKAVDLLNYTQWFPIVIFFNPDSRQGVKTMRQRLNPTSNKSSRKLFDQANKLKKTCAHLFTATINLNSANDSWFGSLKDTIQHQQGEAVWVSEGKMEGMDDDPEDRMSYLTAMGADYLSCDSRLISDFEDTDGEGGAYTDNELDEPAEEPLVSSITRSSEPVQHEESIRKPSPEPRAQMRRAASSDQLRDNSPPPAFKPEPPKAKTQNKEESYDFSKSYEYKSNPSAVAGNETPGASTKGYPPPVAAKPTFGRSILKPSTPIPPQEGEEVGESSEEQDNAPKSVLGKVKIFEKMDHKARLQRMQELQEAQNARIEIAQKHPDIYAVPIKTHKPDPGTPQHTSSRPPEPQKAPSRPYQDTRGSYGSDAEEEEYRQQLSEHSKRGYYGQSARYRDTEL", "values": [
      {"measurement": "binding", "setting": "[3]", "result": "no binding"}
    ]}
  ]
}
